Test results reported in US8883763B2 (Universite Joseph Fourier, priority 2010, dated 2014).
At least one structure is not confirmed: it was looked up by name or label, or the drawing left a doubt.

Test system: bovine brain tubulin
Assay: In vitro tubulin polymerization test (turbidimetry at 350 nm)
Format: biochemical
Conditions: molecules at 50 μM, calculated at t=3000 s, DMSO control = 100%
Experimental: Tubulin was purified from bovine brain using the polymerization-depolymerization process described by (Castoldi M and Popov A V. Protein Expr Purif. 2003, 32(1): pp 83-8).
The in vitro tubulin polymerization tests (at 50 μM) were carried out in the presence of GTP 1 mM in BRB80 buffer (80 mM K-PIPES pH 6.8, 1 mM MgCl2, 1 mM EGTA) at 37° C. The tests were carried out in 96-microwell plates (half-wells) (Costar plates, Corning #3695), in triplicate with a final volume of 70 μl. Tubulin assembly was carried out in the presence of compound 6 or its analogues (all used at a concentration of 50 μM) and was monitored by turbidimetry measurement at 350 nm using a spectrophotometer (Spectramax More, Molecular Devices).
Measurement of the effect of a molecule on polymerization was calculated at t=3000 s taking the value of the control at the same time as being equal to 100%.

`O=c1c2ccccc2cc(-c2ccccc2)n1Cc1ccc(O)cc1` [Compound 74, 2-(p-hydroxybenzyl)-3penylisoquinolin-1(2H)-one] was tested, and the Tubulin polymerization inhibition was “+ ((+) signifies that the molecule induces tubulin assembly inhibition in vitro comprised between 6 and 25% of the DMSO control.)”.
